From publication PMC12099056, “Targeting the Exonic Circular OGT RNA/O-GlcNAc Transferase/Forkhead Box C1 Axis Inhibits Asparagine- and Alanine-Mediated Ferroptosis Repression in Neuroblastoma Progression” (Research, 2025) come the findings set out here.

Protein sequences, listed by entry. Tags and fused reporters are not part of them.
UniProt Q12948: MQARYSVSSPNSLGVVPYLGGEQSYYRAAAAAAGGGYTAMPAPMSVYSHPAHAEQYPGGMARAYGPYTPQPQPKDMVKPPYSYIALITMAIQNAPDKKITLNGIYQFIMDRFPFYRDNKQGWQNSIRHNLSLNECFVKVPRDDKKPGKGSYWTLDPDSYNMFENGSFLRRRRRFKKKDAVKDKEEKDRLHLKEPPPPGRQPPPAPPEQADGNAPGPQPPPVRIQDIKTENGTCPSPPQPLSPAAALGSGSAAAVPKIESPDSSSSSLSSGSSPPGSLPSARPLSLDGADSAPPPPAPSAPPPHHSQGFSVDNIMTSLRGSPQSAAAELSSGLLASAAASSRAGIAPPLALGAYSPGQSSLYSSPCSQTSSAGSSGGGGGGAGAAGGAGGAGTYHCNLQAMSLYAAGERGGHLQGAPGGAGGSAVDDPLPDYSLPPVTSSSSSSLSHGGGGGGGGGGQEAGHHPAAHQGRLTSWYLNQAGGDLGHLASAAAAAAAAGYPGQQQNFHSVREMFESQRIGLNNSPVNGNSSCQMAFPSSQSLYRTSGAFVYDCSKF

The assay has as its target forkhead box C1 (human (endogenous in IMR-32 and SK-N-BE(2))) (UniProt Q12948). The experiment in a line: affinity purification with mass spectrometry; co-IP with FOXC1 antibody from IMR-32 cell lysates, Protein A/G magnetic beads, mass spectrometry.

No constants are given. Whether binding was seen depends on the method and setting. Binding seen in cells or lysates may run through a third protein. A yes stands for co-enrichment or nearness to the bait. Other partners may have been found.

B1: O-GlcNAc transferase (enzyme, UniProt O15294 1-1046)
chain: MASSVGNVADSTEPTKRMLSFQGLAELAHREYQAGDFEAAERHCMQLWRQEPDNTGVLLLLSSIHFQCRRLDRSAHFSTLAIKQNPLLAEAYSNLGNVYKERGQLQEAIEHYRHALRLKPDFIDGYINLAAALVAAGDMEGAVQAYVSALQYNPDLYCVRSDLGNLLKALGRLEEAKACYLKAIETQPNFAVAWSNLGCVFNAQGEIWLAIHHFEKAVTLDPNFLDAYINLGNVLKEARIFDRAVAAYLRALSLSPNHAVVHGNLACVYYEQGLIDLAIDTYRRAIELQPHFPDAYCNLANALKEKGSVAEAEDCYNTALRLCPTHADSLNNLANIKREQGNIEEAVRLYRKALEVFPEFAAAHSNLASVLQQQGKLQEALMHYKEAIRISPTFADAYSNMGNTLKEMQDVQGALQCYTRAIQINPAFADAHSNLASIHKDSGNIPEAIASYRTALKLKPDFPDAYCNLAHCLQIVCDWTDYDERMKKLVSIVADQLEKNRLPSVHPHHSMLYPLSHGFRKAIAERHGNLCLDKINVLHKPPYEHPKDLKLSDGRLRVGYVSSDFGNHPTSHLMQSIPGMHNPDKFEVFCYALSPDDGTNFRVKVMAEANHFIDLSQIPCNGKAADRIHQDGIHILVNMNGYTKGARNELFALRPAPIQAMWLGYPGTSGALFMDYIITDQETSPAEVAEQYSEKLAYMPHTFFIGDHANMFPHLKKKAVIDFKSNGHIYDNRIVLNGIDLKAFLDSLPDVKIVKMKCPDGGDNADSSNTALNMPVIPMNTIAEAVIEMINRGQIQITINGFSISNGLATTQINNKAATGEEVPRTIIVTTRSQYGLPEDAIVYCNFNQLYKIDPSTLQMWANILKRVPNSVLWLLRFPAVGEPNIQQYAQNMGLPQNRIIFSPVAPKEEHVRRGQLADVCLDTPLCNGHTTGMDVLWAGTPMVTMPGETLASRVAASQLTCLGCLELIAKNRQEYEDIAVKLGTDLEYLKKVRGKVWKQRISSPLFNTKQYTMELERLYLQMWEHYAAGNKPDHMIKPVEVTESA
As to B1, the binding result was “binds”.
